In the supplement of paper PMC4371806:
The full ranking holds about 2,300 compounds; the median of “plate-normalized OD600 growth (mean of duplicates)” is about 0.29, and the lowest 2% start at about 0.22. The list shows a part of the results.

Tested on: Escherichia coli BW25113
Assay: plate-normalized OD600 growth (mean of duplicates) (OD600 (normalized)); higher = more growth (less inhibition)
Conditions: 10 µM
Method: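 E. coli BW25113 in LB (100 µl, 96-well, no shaking) was exposed to 10 µM of each compound from a ~30,000-member library and grown at 37°C for 24 h or 15°C for 48 h, in duplicate. Growth was read as OD600 and the duplicate ODs were normalized across screening plates to correct plate-to-plate variation. Hits were >3σ below the mean OD600 at 15°C and <2σ below the mean at 37°C.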

Row | Compound | plate-normalized OD600 growth (temperature: 15°C, 48 h) | plate-normalized OD600 growth (temperature: 37°C, 24 h)
1 | COc1ccc(C(=O)NN2C(=O)C3C(C2=O)C2C=CC3C23CC3)cc1 (configuration not stated) | 0.249 | 0.604
2 | COc1ccc(S(=O)(=O)n2ccnc2C)cc1 | 0.251 | 0.62
3 | S=c1[nH]nc(-c2ccncc2)n1-c1ccccc1 | 0.239 | 0.621
4 | Cc1ccc(-c2cc(C(F)(F)F)n3nc(C(=O)N(C)Cc4ccccc4)cc3n2)cc1 | 0.252 | 0.638
5 | CCOC(=O)C(=CNNc1ccnc2cc(Cl)ccc12)C(=O)OCC | 0.26 | 0.616
6 | Cc1cc(=O)oc2cc(NC=C3C(=O)OC(C)(C)OC3=O)ccc12 | 0.247 | 0.599
7 | O=C(NCCc1ccc(Cl)cc1)C(=O)NCC1CCCO1 (configuration not stated) | 0.252 | 0.629
8 | CCN(CC)c1ccc(/C=N/n2cnnc2)c(OCc2ccc(Cl)cc2)c1 | 0.248 | 0.63
9 | COc1cc(C=Nc2c(C)nn(-c3ccc([N+](=O)[O-])cc3)c2C)ccc1O | 0.262 | 0.623
10 | Cc1cc(C)c(C#N)c(SC2CC(=O)N(c3ccccc3)C2=O)n1 (configuration not stated) | 0.24 | 0.609
11 | CCn1c(=O)c(-c2[nH][nH]c(=O)c2C=C2C(=O)Nc3ncccc3C2=O)c(O)c2ccccc21 | 0.247 | 0.607
12 | CCn1c(=O)c(-c2[nH][nH]c(=O)c2C=Nc2ncccn2)c(O)c2ccccc21 | 0.254 | 0.619
13 | Cc1ccc(COc2ccc(C)nc2[N+](=O)[O-])cc1 | 0.233 | 0.637
14 | CCC(=O)Nc1nc(-c2ccc(Cl)c(Cl)c2)nc2c1c(=O)oc1ccccc12 | 0.249 | 0.614
15 | N#Cc1ccccc1OCC(=O)C1CC1 | 0.242 | 0.621
16 | CCOC(=O)c1c(CN2CCN(Cc3oc4ccc(OC)cc4c3C(=O)OCC)CC2)oc2ccc(OC)cc12 | 0.247 | 0.62

Row | Compound | plate-normalized OD600 growth (temperature: 15°C, 48 h) | plate-normalized OD600 growth (temperature: 37°C, 24 h)
17 | COc1cc(S(=O)(=O)N2CCN(Cc3ccc4c(c3)OCO4)CC2)c(C)cc1C | 0.241 | 0.64
18 | O=C(O)CCCN1C(=O)C(=O)C(=C(O)c2ccccc2)C1c1ccc(Br)cc1 (configuration not stated) | 0.226 | 0.646
19 | COc1ccc2ccccc2c1/C=C1/C=C(c2ccccc2)OC1=O | 0.241 | 0.648
20 | COC(=O)c1ccccc1-n1cccc1C(=O)OC | 0.266 | 0.616
21 | CCOC(=O)c1c(CN2CCN(C(=O)OCC)CC2)n(-c2ccccc2)c2ccc(O)cc12 | 0.25 | 0.652
22 | COc1ccc(OC)c(/C=C2\C(=N)N3N=C(C)SC3=NC2=O)c1 | 0.26 | 0.637
23 | CCCOc1ccc(/C=N/Nc2nc(=O)[nH]nc2C)cc1OC | 0.254 | 0.633
24 | Cc1ccccc1NC(=S)NN1C(=O)CSC1/C=C/c1ccccc1 (configuration not stated) | 0.251 | 0.608
25 | COc1ccccc1N1CCN(C(=O)C(C)Nc2ccccn2)CC1 (configuration not stated) | 0.248 | 0.62
26 | CC(=O)CS(=O)(=O)c1ccc(Cl)cc1 | 0.259 | 0.614
27 | Cc1ccc(NC(=O)Nc2ccc(C)c(NC(=O)Nc3ccc(C)cc3)c2)cc1 | 0.242 | 0.578
28 | Nc1nc(N)nc(Cc2ccccc2)n1 | 0.25 | 0.622
29 | CC(C)CC(=O)N(NC(=O)c1ccccc1)c1ccccc1 | 0.22 | 0.615
30 | CC(C)(C)c1ccc(S(=O)(=O)Nc2ccc(Oc3ccc(NS(=O)(=O)c4ccc(C(C)(C)C)cc4)cc3)cc2)cc1 | 0.251 | 0.621
31 | CSc1nc(N)nc(N2CCCCC2)n1 | 0.26 | 0.647

Quoted from the listing.
Value for O=C(O)CCCN1C(=O)C(=O)C(=C(O)c2ccccc2)C1c1ccc(Br)cc1 (configuration not stated) under plate-normalized OD600 growth (temperature: 37°C, 24 h): 0.646
Value for CC(=O)CS(=O)(=O)c1ccc(Cl)cc1 under plate-normalized OD600 growth (temperature: 37°C, 24 h): 0.614
